Source: PubChem BioAssay AID493027 (The Scripps Research Institute Molecular Screening Center, 2011)
In all, about 2,000 compounds went through this assay and about 45 (2%) were called active.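 How the source made its calls: active means inhibition above the screen-wide mean inhibition plus 3 SD (cut at about 44% in these data); inactive means the rest.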 The list shows a part of the results.

Amino acid sequences for entries named in this document (tags omitted). A change or cut given only in a name is not applied to a line headed by its entry.
UniProt O60240: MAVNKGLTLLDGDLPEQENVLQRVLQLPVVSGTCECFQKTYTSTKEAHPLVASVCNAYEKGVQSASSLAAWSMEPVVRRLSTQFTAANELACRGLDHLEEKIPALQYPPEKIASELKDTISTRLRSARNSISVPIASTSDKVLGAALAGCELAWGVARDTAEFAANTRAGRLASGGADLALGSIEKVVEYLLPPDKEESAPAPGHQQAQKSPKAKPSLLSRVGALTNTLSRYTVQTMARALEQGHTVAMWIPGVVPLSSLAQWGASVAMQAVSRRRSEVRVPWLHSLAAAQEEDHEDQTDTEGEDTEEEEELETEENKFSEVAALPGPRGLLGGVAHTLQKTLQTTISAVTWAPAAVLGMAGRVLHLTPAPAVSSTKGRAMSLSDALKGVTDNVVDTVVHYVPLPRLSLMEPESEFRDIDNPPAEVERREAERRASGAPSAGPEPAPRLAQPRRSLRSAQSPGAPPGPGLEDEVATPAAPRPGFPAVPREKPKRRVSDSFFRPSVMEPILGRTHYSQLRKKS
UniProt Q8WTS1: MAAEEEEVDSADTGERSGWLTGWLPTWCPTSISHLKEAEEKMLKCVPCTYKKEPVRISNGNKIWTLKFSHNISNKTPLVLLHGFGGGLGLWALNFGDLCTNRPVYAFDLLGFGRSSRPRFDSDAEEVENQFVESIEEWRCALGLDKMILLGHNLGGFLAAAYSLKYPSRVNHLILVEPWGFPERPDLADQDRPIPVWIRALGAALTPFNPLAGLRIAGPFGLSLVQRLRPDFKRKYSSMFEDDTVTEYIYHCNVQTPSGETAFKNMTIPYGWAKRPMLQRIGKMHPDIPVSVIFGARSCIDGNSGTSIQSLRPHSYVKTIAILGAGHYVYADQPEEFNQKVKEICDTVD

Target: Perilipin-1 (Homo sapiens) + 1-acylglycerol-3-phosphate O-acyltransferase ABHD5 (Homo sapiens) (UniProt O60240+Q8WTS1)
Assay: ABHD5-PLIN1 interaction inhibitors, pilot screen, cell lysate, split luciferase complementation, luminescence, NIH validation set (AID 493027);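 further: 0% = DMSO wells with the 100% control not disclosed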
Conditions: split G. princeps luciferase complementation, 4 h; at 7.9 µM, stronger effect = higher value

inhibition, inactive:
COc1ccc2oc(C)c(C(N)=O)c2c1 -3.2%
CN1CCN(CC/C=C2/c3ccccc3Sc3ccc(S(=O)(=O)N(C)C)cc32)CC1 4.05%
CC(=O)OC(CC(=O)O)C[N+](C)(C)C (stereo not given) -12.8%
CC1(C)Cc2ccccc2C(C(Cc2ccccc2)C(N)=O)=N1 (stereo not given) -5.58%
Cc1ccc2[nH]c3c(c2c1)CN(C)CC3 -2.27%
CC(C)CCOCC(=O)Nc1cccc(C(=O)O)c1 -3.29%
CC(=O)c1cc2c(cc1NC(=O)c1ccco1)OCCO2 -0.37%
CCCc1cc(C(N)=S)ccn1 -3.81%
COc1ccc(NC(=O)C2CCCN2C(=O)OC(C)(C)C)cc1 (stereo not given) -11.3%
CC(=O)Nc1ccc(OS(=O)(=O)c2c(C)cc(C)cc2C)cc1 1.17%
CC(=O)OCC(=O)[C@@]1(O)CC[C@H]2[C@@H]3CCC4=CC(=O)CC[C@]4(C)[C@H]3[C@@H](O)C[C@@]21C 2.83%
O=C(NC(=S)Nc1ccc2c(c1)OCCO2)c1ccccc1F -3.88%
NS(=O)(=O)c1cc(C2(O)NC(=O)c3ccccc32)ccc1Cl (stereo not given) 8.72%
O=C(NCc1ccc2c(c1)OCO2)c1ccc2c(c1)OCCO2 -4.38%
O=C(O)CCCCCCCC(=O)O -5.68%
COc1ccc(C(=O)NCC2OCCc3ccccc32)cc1 (stereo not given) 5.88%
CCCCN(CCCC)CCCOC(=O)c1ccc(N)cc1 -0.98%
CC[N+](C)(C)c1cccc(O)c1 -6.49%
Cc1ccc(-c2nnc(-c3ccc4c(c3)OCO4)o2)cc1 -6.07%
COc1cc(/C=C/C(=O)O)cc(S(=O)(=O)NCCCO)c1OC -7.07%
O=C(NC(=S)Nc1ccc(N2CCN(C(=O)c3ccccc3)CC2)cc1)c1cccs1 13.1%
COc1ccc2[nH]c(=O)c3c(c2c1)OC(C)(C)C=C3 -6.15%
CN(C)c1ccc(C(CN)c2c[nH]c3ccccc23)cc1 (stereo not given) 31.5%
CCOc1ccccc1Oc1coc2cc(OCC(=O)O)ccc2c1=O -5.23%
CCn1cc(CN2N=C(C)CC2c2ccccc2)c(C)n1 (stereo not given) 1.27%
CC[N+](C)(CC)CCOC(=O)C(O)(c1ccccc1)C1CCCCC1 (stereo not given) -8.98%
C/C=C/c1ccc(OCCCCN2CC(C)CC(C)C2)c(OC)c1 (stereo not given) -3.75%
O=C(Cc1ccc(Br)cc1)c1ccc(O)cc1O 11.4%
COc1c(O)ccc2c1CN1CCc3cc4c(cc3C1C2)OCO4 (stereo not given) -0.53%
CCNC1=C(Cl)C(=O)c2ccccc2C1=O -12.7%
COC(=O)C1=C(C)NC(C)=C([N+](=O)[O-])C1c1ccccc1C(F)(F)F (stereo not given) 1.42%
Nc1ccc(-c2nc3ncccc3o2)c(Cl)c1 -7.73%
O=C1C2CC=C(Cl)CC2C(=O)N1CCc1c[nH]c2ccccc12 (stereo not given) -0.58%
CN(C)CCCN1c2ccccc2Sc2ccc(C(F)(F)F)cc21 -6.54%
Cc1ccc2c(c1)c1c(n2C)C(=O)CCC1 -0.2%
N#CCC(N)=C(C#N)C#N -8.27%
CCN(CC)CCOC(=O)C1(C2CCCCC2)CCCCC1 -12.7%
COc1ccc(OC)c(-c2oc3ccccc3c(=O)c2O)c1 -12.2%
Cc1nc2ccccc2c(=O)n1N -10.4%
Cc1cccc(N2C(=O)C3C(c4ccccc4)OC4(C(=O)c5ccccc5C4=O)C3C2=O)c1 (stereo not given) 10.6%
CN1CCN(C2=Nc3ccccc3Oc3ccc(Cl)cc32)CC1 -8.87%
O=C1C(O)CC2c3ccccc3CC3(CCCC3)N12 (stereo not given) -0.58%
COc1ccccc1N1C(=O)C2CC(C)=C(C)CC2C1=O (stereo not given) -6.79%
CCCCCCCCCC(=O)OCC(O)CO (stereo not given) 0.88%
O=C1N=c2ccccc2=C1c1[nH]c(=S)[nH]c1O -9.29%
O=C(/C=C/c1ccc(F)cc1)N1CC[C@@]2(O)CCCC[C@H]2C1 -4.91%
O=C(O)Cc1ccc(-c2ccccc2)cc1 2.1%
CCOC(=O)C1=C2c3ccc4ccccc4c3CC(C)(C)N2C(=O)C1=O 8.12%
C[C@@H]1C[C@H]2[C@@H]3C[C@H](F)C4=CC(=O)C=C[C@]4(C)[C@@]3(F)[C@@H](O)C[C@]2(C)[C@@]1(O)C(=O)CO -5.01%
CC(C)(C)C(=O)Nc1cccc(OC(F)(F)C(F)Cl)c1 (stereo not given) -7.9%
O=C(O)CCSc1nc2ccccc2s1 0.7%
COCCCC/C(=N\OCCN)c1ccc(C(F)(F)F)cc1 -0.43%
C[C@]12CCC(=O)C=C1CC[C@@H]1[C@@H]2C(=O)C[C@@]2(C)[C@H]1CC[C@]2(O)C(=O)CO -6.41%
CC1CCN(C(=O)Oc2ccccc2)CC1 -1.86%
Cc1ccc2[nH]c(=O)c(Cc3ccccc3)c(O)c2c1 -11.7%
CCOC(=O)N1CCC(=C2c3ccc(Cl)cc3CCc3cccnc32)CC1 19.3%
NC(=O)c1ccccc1O 2.65%
N/C(=N\OS(=O)(=O)c1ccc2ccccc2c1)c1cccnc1 0.01%
CSCC[C@H](NC(=O)Nc1ccc(C)cc1C)C(=O)O -8.71%
O=C(CN1C(=O)/C(=C/c2cccc(Br)c2)SC1=S)Nc1cccnc1 37.2%
CC(C)=CC/C=C1\CCC(C(=O)O)C(C(=O)O)C1 (stereo not given) -1.23%
CCc1cc(=O)oc2cc(OCC=C(C)C)ccc12 -8.55%
Clc1ccc2c(c1)C(N1CCNCC1)=Nc1ccccc1O2 -11.5%
O=C1c2ccccc2C(=O)C1c1ccccc1 -6.84%
CN(C)c1ccc(O)c2c1CC1CC3[C@@H](N(C)C)C(=O)C(C(N)=O)=C(O)[C@]3(O)C(=O)C1=C2O (stereo not given in full) 1.5%

An excerpt from above in order of SMILES length, high to low.
inhibition, inactive:
CN1CCN(CC/C=C2/c3ccccc3Sc3ccc(S(=O)(=O)N(C)C)cc32)CC1 4.05%
COc1cc(/C=C/C(=O)O)cc(S(=O)(=O)NCCCO)c1OC -7.07%
CC(C)CCOCC(=O)Nc1cccc(C(=O)O)c1 -3.29%
